Laboratory results from PubChem BioAssay AID540336 (Broad Institute, 2011).
The whole screen tested about 330,000 compounds, of which about 520 (0.16%) were called active. This list was built around the results that the source calls inconclusive (neither active nor inactive); the mix of calls is not that of the screen.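 Rule for the calls: active = inhibition of at least 50% in every replicate; inconclusive = best replicate reaches 50% inhibition but some replicates fall short; inactive = the rest.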

Amino acid sequences for entries named in this document (tags omitted).
UniProt Q5AAJ8, whole entry, looked up: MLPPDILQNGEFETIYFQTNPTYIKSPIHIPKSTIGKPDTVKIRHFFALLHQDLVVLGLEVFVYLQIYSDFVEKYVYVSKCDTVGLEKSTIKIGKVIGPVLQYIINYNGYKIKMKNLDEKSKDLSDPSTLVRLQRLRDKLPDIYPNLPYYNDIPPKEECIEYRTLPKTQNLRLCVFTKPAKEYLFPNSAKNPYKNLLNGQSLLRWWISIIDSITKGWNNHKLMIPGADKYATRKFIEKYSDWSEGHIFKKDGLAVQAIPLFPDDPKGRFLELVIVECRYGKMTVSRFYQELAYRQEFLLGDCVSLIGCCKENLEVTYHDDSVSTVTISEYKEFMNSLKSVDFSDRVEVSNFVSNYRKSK

Target: Histone acetyltransferase RTT109 (Candida albicans (strain SC5314 / ATCC MYA-2876)) (UniProt Q5AAJ8)
Assay: Rtt109-Vps75 histone acetyltransferase blockade – biochemical, ThioGlo CoA-SH fluorescence, plate reader, primary screen (AID 540336)
Settings: purified Rtt109/Vps75, ThioGlo CoA-SH fluorescence, 4 h; at 34.9 µM; active compounds read high

How did the inhibition turn out when `C#CCOCCOCCOCCNc1nc(N2CCN(C(=O)CCCCCCCCCCNC(=O)[C@H](CCCCN)n3cc(C)nn3)CC2)nc(N2CCN(C(=O)CCCCCCCCCCNC(=O)[C@@H]([C@H](C)CC)n3cc(CCCCCN)nn3)CC2)n1` was run?
The inhibition was inconclusive: 53.2%.

With `Cc1nn(S(=O)(=O)c2ccc(C(C)C)cc2)c(C)c1S(=O)(=O)N1CCOCC1` as the molecule, how does the inhibition read?
The inhibition was active: 54.3%.

Which inhibition does the source give for `Cc1ccc(OCC(=O)c2ccc(Cl)s2)c([N+](=O)[O-])n1` here?
The inhibition was inconclusive: 33.5%.

With `O=C(Nc1cccc(S(=O)(=O)N2CCCCC2)c1)c1ccco1` as the molecule, how does the inhibition read?
Its inhibition is inactive: 2.06%.

`CC1(C)Cc2c(sc3ncn4c(=S)[nH]nc4c23)CO1` was tested. Which inhibition did it give?
Its inhibition is inactive: 11.3%.

With `CC1CC(C)CN(S(=O)(=O)c2ccc3c(c2)CC(C)N3C(=O)C2CCC2)C1` (stereo unspecified) as the molecule, how does the inhibition read?
Its inhibition is inconclusive: 50.6%.

How did the inhibition turn out when `COc1ccc(-n2nc3c(N4CCC(C(=O)N5CCC(C)CC5)CC4)nnc(C)c3c2C)cc1` was run?
Its inhibition is inconclusive: 53.5%.

For `Cc1cccc(NC(=O)COC(=O)Cc2c[nH]c3ccccc23)c1C`, which inhibition is on record?
Its inhibition is inconclusive: 18.4%.

For `CC1CN(C(=O)CCC(=O)N2CCN(c3cccc(C(F)(F)F)c3)CC2)c2ccccc2O1` (stereo unspecified), which inhibition is on record?
Its inhibition is inconclusive: 42.3%.

`O=C1CCC(=O)N1c1ccc(-c2nc3ccccc3s2)cc1` was tested. Which inhibition did it give?
Its inhibition is active: 52.1%.

`COc1ccc(-c2nn(-c3ccccc3)cc2/C=N/n2cnnc2)cc1OC` was tested. Which inhibition did it give?
The inhibition was inconclusive: 33.7%.

For `CC(C)CCNC(=O)C1CCN(S(=O)(=O)c2ccc3c(c2)CC(C)N3C(=O)C2CCC2)CC1` (stereo unspecified), which inhibition is on record?
Its inhibition is active: 93.7%.

For `O=[N+]([O-])c1ccccc1CNc1ccc(F)c(Cl)c1`, which inhibition is on record?
Its inhibition is inactive: 5.61%.

How did the inhibition turn out when `Cc1ccc(S(=O)(=O)NCCC(=O)O)cc1` was run?
Its inhibition is inconclusive: 35.5%.

With `CSCCC(NC(=O)c1cccc(C)c1)C(=O)OCC(=O)Nc1c(C)nn(-c2ccccc2)c1C` (stereo unspecified) as the molecule, how does the inhibition read?
The inhibition was inconclusive: 35.6%.

`Cc1ccc(NC(=S)NC2CCN(Cc3ccccc3)CC2)c(C)c1` was tested. Which inhibition did it give?
Its inhibition is inconclusive: 32.2%.

`Cc1ccccc1NC(=O)CSC(N)=O` was tested. Which inhibition did it give?
The inhibition was inconclusive: 29.7%.

With `N/C(=N\OC(=O)c1ccc(Cl)cc1)c1ccccn1` as the molecule, how does the inhibition read?
The inhibition was inactive: -14.3%.

For `Cc1ccc2oc(=O)n(CCOc3ccccc3C)c2c1`, which inhibition is on record?
Its inhibition is inconclusive: 25.2%.

`CCCC[n+]1c(C)sc2cc(OC)ccc21` was tested. Which inhibition did it give?
The inhibition was active: 185%.

How did the inhibition turn out when `NC1=NC[C@H](c2ccccc2)N1CCc1cc(C(F)(F)F)cc(C(F)(F)F)c1` was run?
The inhibition was inconclusive: 16.6%.

For `COc1ccc(C)c2sc(N(CCCN(C)C)C(=O)c3ccc(S(=O)(=O)N4CCc5ccccc5C4)cc3)nc12`, which inhibition is on record?
Its inhibition is inconclusive: 40.7%.

How did the inhibition turn out when `O=c1c2cc(F)ccc2sn1-c1ccccc1` was run?
The inhibition was active: 132%.

`CCOC(=O)C1CCN(Cc2ccc(OC)cc2OC)CC1` was tested. Which inhibition did it give?
The inhibition was inconclusive: 6.35%.

How did the inhibition turn out when `C#CCOc1ccc(/C=C2/C(=O)NN(c3ccccc3)C2=O)cc1OC` was run?
The inhibition was inconclusive: 30.6%.

`Oc1ccc[n+](CC(O)c2ccccc2)c1` (stereo unspecified) was tested. Which inhibition did it give?
The inhibition was inconclusive: 16.4%.

How did the inhibition turn out when `CN1CCN(C2Cc3cc(Cl)ccc3Sc3cc(F)ccc32)CC1` (stereo unspecified) was run?
Its inhibition is inconclusive: 40.1%.

`Cc1cc(C)cc(NC(=O)c2cccc(C(=O)Nc3cc(C)cc(C)c3)n2)c1` was tested. Which inhibition did it give?
The inhibition was inactive: -3.98%.

`C=CC[n+]1c(-c2ccccc2)csc1NC(C)(C)C` was tested. Which inhibition did it give?
The inhibition was inactive: -14%.

For `CC[C@@H](C)[C@H](NC(=O)OC(C)(C)C)c1nnc(S(=O)(=O)Cc2cc(C)ccc2C)o1`, which inhibition is on record?
Its inhibition is active: 133%.

Which inhibition does the source give for `CN1C(=O)C(Cl)(Cl)C(=O)c2ccccc21` here?
Its inhibition is inconclusive: 43.1%.

How did the inhibition turn out when `O=C(CCCc1c[nH]c2ccccc12)N[C@@H](Cc1c[nH]c2ccccc12)C(=O)O` was run?
The inhibition was inconclusive: 28.1%.

Which inhibition does the source give for `CC(C)(C)[C@H]1COC(=O)[C@@H](Cc2ccc(F)cc2)CC/C=C/C[C@@H](CC(=O)N[C@@H](CO)Cc2ccccc2)C(=O)N1` here?
Its inhibition is inconclusive: 31%.

Which inhibition does the source give for `Cc1ccc(N2C(S)=C(C#N)C(=O)NC2c2cccs2)cc1` (stereo unspecified) here?
Its inhibition is inconclusive: 29.8%.

With `CN1CCN(C2CC(=O)N(c3ccc4c(c3)OCCO4)C2=O)CC1` (stereo unspecified) as the molecule, how does the inhibition read?
Its inhibition is inconclusive: 73.7%.

Which inhibition does the source give for `COc1ccc(-n2sc3ccc(F)cc3c2=O)cc1` here?
Its inhibition is active: 159%.

For `Cc1ccc(S(=O)(=O)N2CCCC2CNC(=O)c2ccc(F)c(F)c2)cc1` (stereo unspecified), which inhibition is on record?
Its inhibition is inconclusive: 23.9%.

For `COc1ccc(-c2cc(-c3ccccc3)nc(SCC(=O)Nc3ncc(C)s3)c2C#N)cc1`, which inhibition is on record?
The inhibition was inactive: -4.53%.

For `Cc1ccc(CN2CCN(Cc3cccc(OCCO)c3)CC2CCO)o1` (stereo unspecified), which inhibition is on record?
The inhibition was inconclusive: 28%.

With `COc1cccc(CN(C)C(=O)CNC(=O)c2sc3ccccc3c2Cl)c1OC` as the molecule, how does the inhibition read?
Its inhibition is inconclusive: 30.2%.

How did the inhibition turn out when `CCn1nc(C)c(NC(=O)CCCSc2nc(-c3ccco3)cc(C(F)(F)F)n2)c1C` was run?
The inhibition was inconclusive: 35.7%.

`O=C(/C=C/Nc1ccc([N+](=O)[O-])cc1Br)c1cccc2ccccc12` was tested. Which inhibition did it give?
The inhibition was active: 51.2%.

For `CCOC(=O)/C(C#N)=C\N(C)C`, which inhibition is on record?
The inhibition was inconclusive: 41.8%.

How did the inhibition turn out when `CCN1CCN(CCNC(=O)c2ccc(/C=C3/Sc4ccccc4N(Cc4cccc(C)c4)C3=O)cc2)CC1` was run?
Its inhibition is inconclusive: 43.7%.

Which inhibition does the source give for `Cc1ccc(NC(=O)C2CCN(S(=O)(=O)c3cccs3)CC2)cc1C` here?
The inhibition was inconclusive: 43.6%.

For `Cc1ccccc1C(=O)N1CCC(C(=O)Nc2ccc3c(c2)OCO3)CC1`, which inhibition is on record?
The inhibition was inconclusive: 30.7%.

`CC1(c2ccc(OC(F)F)cc2)NC(=O)N(CC(=O)Nc2cccc(S(N)(=O)=O)c2)C1=O` (stereo unspecified) was tested. Which inhibition did it give?
The inhibition was inconclusive: 25.2%.

`Cc1cc(C)c2nc3sc(C(=O)N4CCOCC4)c(N)c3cc2c1` was tested. Which inhibition did it give?
The inhibition was inactive: 17.3%.

For `N#CCSc1ccccc1NC(=O)CN1C(=O)C(=O)N(Cc2ccccc2)C1=O`, which inhibition is on record?
Its inhibition is inactive: -1.25%.

`CCOC(=O)c1c(-c2ccccc2)oc2ccc(OCC(O)CNCCN(C)C)cc12` (stereo unspecified) was tested. Which inhibition did it give?
The inhibition was inconclusive: 58.4%.

For `COc1ccc(NC(=S)NCc2ccccn2)cc1OC`, which inhibition is on record?
The inhibition was inconclusive: 36.3%.

How did the inhibition turn out when `C=CCN(CC=C)S(=O)(=O)c1ccc2nc(NC(=O)C3CCCO3)sc2c1` (stereo unspecified) was run?
Its inhibition is inconclusive: 25%.

`COc1ccccc1NC(=O)CSC1CC(=O)N(c2ccc3c(c2)OCO3)C1=O` (stereo unspecified) was tested. Which inhibition did it give?
The inhibition was inconclusive: 33.7%.

Which inhibition does the source give for `O=C(CSC1=Nc2ccccc2C2CC=NN12)Nc1ccc2c(c1)OCO2` (stereo unspecified) here?
Its inhibition is inconclusive: 34.7%.

For `CC(=O)N1CCN(C(=O)c2ccco2)CC1`, which inhibition is on record?
The inhibition was inactive: -9.52%.

With `CCCCc1ccc(NC(=O)CSc2nc(=O)n(CCN(CC)CC)c3c2CCC3)cc1` as the molecule, how does the inhibition read?
The inhibition was inconclusive: 28.2%.

For `Cc1ccc(C(=O)NCC(=O)OCCOc2ccccc2Cl)cc1`, which inhibition is on record?
Its inhibition is active: 56.5%.

With `N#Cc1cccc(C(=O)OCC(=O)N2CCCc3ccccc32)c1` as the molecule, how does the inhibition read?
The inhibition was inconclusive: 16.9%.

`O=C(NCCN1CCOCC1)c1nn2c(c1Cl)NC(c1ccccc1)CC2C(F)(F)F` (stereo unspecified) was tested. Which inhibition did it give?
The inhibition was inconclusive: 34.6%.

How did the inhibition turn out when `O=C1CC(c2ccccc2)CC(=O)C1CS(=O)(=O)c1ccccc1` (stereo unspecified) was run?
The inhibition was inconclusive: 21.6%.

How did the inhibition turn out when `O=C(CCCSc1nc2ccccc2[nH]1)NC1CCCCC1` was run?
Its inhibition is active: 56.5%.

How did the inhibition turn out when `O=C(CSC1CC(=O)N(c2ccc(C(=O)O)cc2)C1=O)Nc1ccc(Cl)cc1` (stereo unspecified) was run?
Its inhibition is inconclusive: 74.5%.

With `COc1cc(/C=C2\COC/C(=C\c3cc(OC)c(OC)c(OC)c3)C2=O)cc(OC)c1OC` as the molecule, how does the inhibition read?
Its inhibition is inactive: 13.2%.

`CCC(=O)N(CCc1ccccc1)Cc1cc2cc(C)ccc2[nH]c1=O` was tested. Which inhibition did it give?
The inhibition was active: 54.1%.

With `CC(=O)/C(=N/Nc1ccccc1)Sc1nnc(C(O)c2ccccc2)n1-c1ccccc1` (stereo unspecified) as the molecule, how does the inhibition read?
Its inhibition is active: 56.8%.

With `CC(C)C(=O)Nc1ccc(N2CCCC2)cc1` as the molecule, how does the inhibition read?
The inhibition was inconclusive: 21.1%.

With `C[C@H]1CN([C@@H](C)CO)C(=O)Cc2cc(NC(=O)Nc3ccccc3)ccc2O[C@H]1CN(C)Cc1ccccc1` as the molecule, how does the inhibition read?
Its inhibition is inconclusive: 36.5%.

For `CC(=O)Oc1ccc(Cl)cc1/C=C/c1ccc2ccccc2n1`, which inhibition is on record?
The inhibition was inactive: 4.67%.

How did the inhibition turn out when `CCS(=O)(=O)C1=NN2C(=N)/C(=C\c3ccc(OC(=O)c4ccco4)c(OC)c3)C(=O)N=C2S1` was run?
The inhibition was inconclusive: 43.6%.

`N=c1n(Cc2ccc(Cl)cc2)c2ccccc2n1CC(O)COc1ccccc1` (stereo unspecified) was tested. Which inhibition did it give?
The inhibition was inconclusive: 38.1%.

With `Cc1cc2nc3c(=O)n(CCc4ccccc4)c(=O)[nH]c3nc2cc1N` as the molecule, how does the inhibition read?
The inhibition was inconclusive: 23.5%.

For `CCN1C(=NCCCCO)N[C@@H](c2cccc(C(F)(F)F)c2)C(C(=O)OC)=C1C`, which inhibition is on record?
Its inhibition is inactive: 1.85%.

For `CCOC(=O)c1[nH]nc(-c2c(O)cc(C)cc2O)c1-c1csc(C)n1`, which inhibition is on record?
The inhibition was inconclusive: 25.7%.

Which inhibition does the source give for `COc1cc(C(c2c(C(=O)O)[nH]c3ccccc23)c2c(C(=O)O)[nH]c3ccccc23)ccc1OCc1ccccc1` here?
Its inhibition is inconclusive: 10.5%.

`O=C1Cc2ccccc2Sc2c(OCCN3CCCCC3)cccc21` was tested. Which inhibition did it give?
Its inhibition is active: 55%.

How did the inhibition turn out when `CCC(=O)OCC(=O)Nc1cc(C)c(C)cc1[N+](=O)[O-]` was run?
Its inhibition is inactive: -12.7%.

For `O=C(COC(=O)c1nc(Cl)ccc1Cl)Nc1ccc(Cl)cc1`, which inhibition is on record?
Its inhibition is inactive: -13%.

For `CC(=O)Nc1nc(-c2ccccc2)c(-c2ccccc2)o1`, which inhibition is on record?
Its inhibition is active: 58.8%.

`O=C(CSc1nnc2c3ccccc3c3ccccc3c2n1)Nc1ccccc1F` was tested. Which inhibition did it give?
The inhibition was inconclusive: 28%.

For `CNC(=O)c1nnsc1S(=O)c1ccc(Cl)cc1` (stereo unspecified), which inhibition is on record?
Its inhibition is inconclusive: 94%.

For `CCc1nnc(NC(=O)c2nc(S(=O)(=O)Cc3ccc(C)cc3)ncc2Cl)s1`, which inhibition is on record?
Its inhibition is inconclusive: 27.3%.

With `CC(C(=O)NC1CCS(=O)(=O)C1)N1C(=O)/C(=C/c2ccc(Cl)cc2)SC1=S` (stereo unspecified) as the molecule, how does the inhibition read?
The inhibition was active: 180%.

How did the inhibition turn out when `CC(C)(CNC(=O)c1cc(-c2ccc(Cl)s2)nc2ccccc12)N1CCOCC1` was run?
The inhibition was inactive: 0.527%.

With `NC(=O)c1cc[n+](Cc2ccc([N+](=O)[O-])cc2)cc1` as the molecule, how does the inhibition read?
The inhibition was inconclusive: 33.7%.

For `Cc1cc(C)cc(C(=O)OCC(=O)NCc2cccs2)c1`, which inhibition is on record?
The inhibition was inconclusive: 21.4%.

With `CC(C)c1nn2c(=O)cc(O)nc2s1` as the molecule, how does the inhibition read?
The inhibition was inactive: -14.4%.
